Only a part is listed here, and it is no random draw. At the low end of the ranking, values are background and their order means little.
Biological target: T1, ETV2 (UniProt O00321)
T1 sequence: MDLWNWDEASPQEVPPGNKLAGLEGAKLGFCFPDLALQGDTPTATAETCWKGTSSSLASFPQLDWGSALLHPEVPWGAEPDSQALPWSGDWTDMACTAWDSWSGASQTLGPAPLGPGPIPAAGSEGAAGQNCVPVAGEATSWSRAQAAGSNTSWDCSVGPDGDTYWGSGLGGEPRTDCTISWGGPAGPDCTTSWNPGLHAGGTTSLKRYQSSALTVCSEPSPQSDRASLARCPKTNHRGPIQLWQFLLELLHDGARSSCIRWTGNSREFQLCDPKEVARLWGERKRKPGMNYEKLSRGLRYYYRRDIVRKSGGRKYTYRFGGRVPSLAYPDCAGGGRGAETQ
Experiment: DAPPL (digital affinity profiling via proximity ligation, sequencing)
Details: 10 mM Tris-HCl pH 7.5, 50 mM NaCl, 1 mM DTT, 4% glycerol, room temperature, 30 min; GST-TFs on glutathione beads, 16-mer random dsDNA library, 0.1% …; high values mean tight binding; double strand, one strand shown; scale: fold enrichment (6-mer frequency, TF over GST control)

Row | Sequence | binding signal
1 | GCCTCG | 1.06
2 | AATTGG | 1.2
3 | TACTTT | 1.33
4 | ACGCCC | 1.05
5 | GAATCT | 1.2
6 | ACGGCC | 1.01
7 | AAGCAC | 1.22
8 | GAAATG | 1.55
9 | TTCCCT | 1.62
10 | ATTTGA | 1.16
11 | CTTACG | 1.1
12 | ATTCTG | 1.43
13 | CCAATG | 0.987
14 | ATTGAA | 1
15 | TGCTAC | 1.24
16 | ACTAAA | 1.24
17 | TCTAAA | 1.27
18 | TATTCC | 1.68
19 | ACATGG | 0.976

Row | Sequence | binding signal
20 | TCTGGG | 1.19
21 | TGGTGT | 1.45
22 | TACACC | 1.19
23 | ATGTCA | 0.962
24 | ATGACT | 1.41
25 | CCCAAT | 1.3
26 | TTGCCT | 1.19
27 | CTCGTG | 0.959
28 | TGCCAA | 0.956
29 | TATGTA | 1.23
30 | CGTCCG | 1.16
31 | ATAAAT | 1.13
32 | CGTCTA | 1.29
33 | CGATTG | 1.08
34 | CGATCT | 1.27
35 | GGTCTT | 1.08
36 | TCCCGC | 1.31
37 | TCCCAA | 0.995
38 | CCTCGT | 0.985

2 records picked at random from the list so far:
Row | Sequence | binding signal
23 | ATGTCA | 0.962
27 | CTCGTG | 0.959

— article PMC7862700
